Measured values reported in patent publication US7977459 (TOUDAI TLO, dated 2011).
Results are given in words; binding and its absence hold for the method and conditions named. Some results given as binding are weak or reduced against the parent protein; the word gives no strength.

Tests used:
[1] = molecular target: T1, mouse AdipoR2 (mouse adiponectin receptor 2) (mouse) (UniProt Q8BQS5); experiment: [125I] ligand binding to transfected 293T cells
T1 sequence: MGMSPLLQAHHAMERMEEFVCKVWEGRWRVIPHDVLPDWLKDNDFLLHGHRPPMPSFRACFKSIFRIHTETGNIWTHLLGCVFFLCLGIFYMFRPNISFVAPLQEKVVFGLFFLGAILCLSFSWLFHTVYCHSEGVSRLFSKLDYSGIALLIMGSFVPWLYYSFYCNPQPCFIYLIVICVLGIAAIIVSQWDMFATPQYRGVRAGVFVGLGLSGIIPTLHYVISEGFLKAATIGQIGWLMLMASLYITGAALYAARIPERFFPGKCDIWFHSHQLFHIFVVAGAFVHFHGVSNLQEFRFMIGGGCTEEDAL

[2] = molecular target: T1, mouse AdipoR2 (mouse adiponectin receptor 2) (mouse); experiment: [125I] ligand binding to C2C12 myocytes transfected with siRNA
[3] = molecular target: T1, mouse AdipoR2 (mouse adiponectin receptor 2) (mouse); experiment: specific binding to hepatocytes, transfected with the receptor or with siRNA
[4] = molecular target: T1, mouse AdipoR2 (mouse adiponectin receptor 2) (mouse); experiment: [125I] ligand binding to C2C12 myocytes transfected with siRNA for both receptors
[5] = molecular target: T1, mouse AdipoR2 (mouse adiponectin receptor 2) (mouse); experiment: [125I] ligand binding to transfected C2C12 myocytes
[6] = molecular target: T1, mouse AdipoR2 (mouse adiponectin receptor 2) (mouse); experiment: [125I] ligand binding and Scatchard analysis, C2C12 myocytes transfected with siRNA
[7] = molecular target: T2, human AdipoR2 (human adiponectin receptor 2) (human) (UniProt Q86V24); experiment: specific binding to HAEC transfected with siRNA for both receptors
T2 sequence: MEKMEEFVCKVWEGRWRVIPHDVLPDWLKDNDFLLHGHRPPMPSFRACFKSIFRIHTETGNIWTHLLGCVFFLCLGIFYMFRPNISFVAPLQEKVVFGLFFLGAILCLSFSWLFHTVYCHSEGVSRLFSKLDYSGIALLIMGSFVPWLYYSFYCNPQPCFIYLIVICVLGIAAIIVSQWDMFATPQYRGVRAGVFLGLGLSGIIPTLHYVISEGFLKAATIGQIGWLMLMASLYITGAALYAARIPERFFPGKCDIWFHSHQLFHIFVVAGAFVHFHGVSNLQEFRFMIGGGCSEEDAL

[8] = molecular target: T3, human AdipoR1 (human adiponectin receptor 1) (human) (UniProt Q96A54); experiment: as above
T3 sequence: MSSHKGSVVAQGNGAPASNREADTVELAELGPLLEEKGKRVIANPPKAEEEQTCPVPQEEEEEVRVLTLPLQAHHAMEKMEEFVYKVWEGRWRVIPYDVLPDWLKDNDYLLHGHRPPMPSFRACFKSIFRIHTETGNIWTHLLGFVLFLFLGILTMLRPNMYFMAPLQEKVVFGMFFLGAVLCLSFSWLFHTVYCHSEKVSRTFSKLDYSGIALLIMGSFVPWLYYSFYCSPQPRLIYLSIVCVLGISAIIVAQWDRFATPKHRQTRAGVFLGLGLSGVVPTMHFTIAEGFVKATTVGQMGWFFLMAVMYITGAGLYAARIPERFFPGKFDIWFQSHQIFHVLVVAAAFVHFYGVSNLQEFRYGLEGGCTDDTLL

[9] = molecular target: T4, mouse AdipoR1 (mouse adiponectin receptor 1) (mouse), Q91VH1; experiment: [125I] ligand binding to transfected 293T cells; settings: remark: other sources report otherwise
T4 chain: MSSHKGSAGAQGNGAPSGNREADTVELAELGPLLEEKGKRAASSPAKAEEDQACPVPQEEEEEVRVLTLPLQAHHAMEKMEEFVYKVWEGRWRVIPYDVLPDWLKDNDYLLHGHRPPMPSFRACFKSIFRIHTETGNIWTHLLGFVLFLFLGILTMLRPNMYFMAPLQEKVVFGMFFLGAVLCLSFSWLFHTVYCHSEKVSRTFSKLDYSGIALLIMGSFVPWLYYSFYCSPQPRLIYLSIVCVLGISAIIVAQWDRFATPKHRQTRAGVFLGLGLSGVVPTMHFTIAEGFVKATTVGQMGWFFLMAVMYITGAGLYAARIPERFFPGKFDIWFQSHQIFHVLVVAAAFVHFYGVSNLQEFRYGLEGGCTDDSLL

[10] = molecular target: T4, mouse AdipoR1 (mouse adiponectin …); experiment: [125I] ligand binding to C2C12 myocytes transfected with siRNA for both receptors; settings: remark: other sources report otherwise
[11] = molecular target: T4, mouse AdipoR1 (mouse adiponectin …); experiment: specific binding to transfected hepatocytes; settings: remark: other sources report otherwise
[12] = molecular target: T4, mouse AdipoR1 (mouse adiponectin …); experiment: [125I] ligand binding and Scatchard analysis, C2C12 myocytes transfected with siRNA; settings: remark: other sources report otherwise
[13] = molecular target: T4, mouse AdipoR1 (mouse adiponectin …); experiment: [125I] ligand binding to transfected C2C12 myocytes; settings: remark: other sources report otherwise
[14] = molecular target: T4, mouse AdipoR1 (mouse adiponectin …); experiment: competitive radioligand binding on C2C12 myocytes transfected with siRNA; settings: remark: other sources report otherwise

Measured: binding

B1: full-length adiponectin (full-length Adipo) (ligand, mouse, UniProt Q60994 18-247, looked up)
chain: EDDVTTTEELAPALVPPPKGTCAGWMAGIPGHPGHNGTPGRDGRDGTPGEKGEKGDAGLLGPKGETGDVGMTGAEGPRGFPGTPGRKGEPGEAAYVYRSAFSVGLETRVTVPNVPIRFTKIFYNQQNHYDGSTGKFYCNIPGLYYFSYHITVYMKDVKVSLFKKDKAVLFTYDQYQEKNVDQASGSVLLHLEVGDQVWLQVYGDGDHNGLYADNVNDSTFTGFLLYHDTN
modifications: 125I-labeled at Tyr in the radioligand binding assay
notes: also called [125I] full-length Adipo
binds: [1] | [2] | [3] | [4] | [5] | [6] | [7] | [8]

B2: full-length adiponectin (full-length Adipo), Q60994 18-247 (ligand, mouse, UniProt Q60994 18-247, looked up)
chain: EDDVTTTEELAPALVPPPKGTCAGWMAGIPGHPGHNGTPGRDGRDGTPGEKGEKGDAGLLGPKGETGDVGMTGAEGPRGFPGTPGRKGEPGEAAYVYRSAFSVGLETRVTVPNVPIRFTKIFYNQQNHYDGSTGKFYCNIPGLYYFSYHITVYMKDVKVSLFKKDKAVLFTYDQYQEKNVDQASGSVLLHLEVGDQVWLQVYGDGDHNGLYADNVNDSTFTGFLLYHDTN
modifications: here or on the partner: 125I-labeled at Tyr in the radioligand binding assay
binds: [9] | [10] | [11] | [12] | [13] | [14]
